From paper PMC6114981
These are yes or no findings as the source states them, for the method shown. Binding seen in cells or lysates may run through a third protein. Some binding calls cover weakened binding; strength is not graded here. For some of these results: Where a sequence is shown, tags or fusion partners need not be part of it.

Chains of the proteins cited; added tags and fusions are not shown.
UniProt Q01469: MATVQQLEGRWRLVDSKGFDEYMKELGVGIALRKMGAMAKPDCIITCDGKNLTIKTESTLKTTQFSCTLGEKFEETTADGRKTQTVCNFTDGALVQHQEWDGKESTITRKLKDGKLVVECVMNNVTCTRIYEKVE

Experiments:
[1] = target: T1, GST-ERRα (estrogen-related receptor α) fusion protein, wild type (human) (UniProt P11474); experiment: pull-down; GST or GST-ERRα (wt, Δ300aa, Δ398aa) incubated with PC-3 whole cell lysates and glutathione sepharose overnight at 4°C; washed three times with 50 mM Tris-HCl pH 7.5, 150 mM NaCl, 0.05% Tween20; western blot for GST, FABP5 and PGC-1β; only the target purified
T1 sequence: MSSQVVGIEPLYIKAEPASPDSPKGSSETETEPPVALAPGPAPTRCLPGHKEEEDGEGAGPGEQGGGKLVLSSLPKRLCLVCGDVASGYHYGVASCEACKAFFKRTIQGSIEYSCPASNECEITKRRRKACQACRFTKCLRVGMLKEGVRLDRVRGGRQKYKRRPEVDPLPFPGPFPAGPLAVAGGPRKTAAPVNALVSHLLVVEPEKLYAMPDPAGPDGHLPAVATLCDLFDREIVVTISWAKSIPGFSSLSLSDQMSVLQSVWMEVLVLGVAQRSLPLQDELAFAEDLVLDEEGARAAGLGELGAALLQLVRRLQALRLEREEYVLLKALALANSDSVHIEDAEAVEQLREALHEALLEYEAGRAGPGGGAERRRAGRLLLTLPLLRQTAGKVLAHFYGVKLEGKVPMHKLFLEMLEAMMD

[2] = target: 3×FLAG-FABP5 (human) (UniProt Q01469); experiment: co-IP; lysates (50 mM Tris-HCl, 150 mM NaCl, 1 mM EDTA, 1% NP-40) of 293T cells transfected with pCI-neo or pCI-neo/3×FLAG-FABP5, agarose-conjugated anti-DDDDK-tag overnight at 4°C; western blot

Row | Molecule | binding [1] | binding [2]
1 | fatty acid-binding protein 5 (FABP5), endogenous in PC-3 cells (from UniProt Q01469 1-135) | binds | 
2 | peroxisome proliferator-activated receptor gamma coactivator 1-beta (PGC-1β), endogenous in PC-3 cells (protein, UniProt Q86YN6 1-1023) MAGNDCGALLDEELSSFFLNYLADTQGGGSGEEQLYADFPELDLSQLDASDFDSATCFGELQWCPENSETEPNQYSPDDSELFQIDSENEALLAELTKTLDDIPEDDVGLAAFPALDGGDALSCTSASPAPSSAPPSPAPEKPSAPAPEVDELSLLQKLLLATSYPTSSSDTQKEGTAWRQAGLRSKSQRPCVKADSTQDKKAPMMQSQSRSCTELHKHLTSAQCCLQDRGLQPPCLQSPRLPAKEDKEPGEDCPSPQPAPASPRDSLALGRADPGAPVSQEDMQAMVQLIRYMHTYCLPQRKLPPQTPEPLPKACSNPSQQVRSRPWSRHHSKASWAEFSILRELLAQDVLCDVSKPYRLATPVYASLTPRSRPRPPKDSQASPGRPSSVEEVRIAASPKSTGPRPSLRPLRLEVKREVRRPARLQQQEEEDEEEEEEEEEEEKEEEEEWGRKRPGRGLPWTKLGRKLESSVCPVRRSRRLNPELGPWLTFADEPLVPSEPQGALPSLCLAPKAYDVERELGSPTDEDSGQDQQLLRGPQIPALESPCESGCGDMDEDPSCPQLPPRDSPRCLMLALSQSDPTFGKKSFEQTLTVELCGTAGLTPPTTPPYKPTEEDPFKPDIKHSLGKEIALSLPSPEGLSLKATPGAAHKLPKKHPERSELLSHLRHATAQPASQAGQKRPFSCSFGDHDYCQVLRPEGVLQRKVLRSWEPSGVHLEDWPQQGAPWAEAQAPGREEDRSCDAGAPPKDSTLLRDHEIRASLTKHFGLLETALEEEDLASCKSPEYDTVFEDSSSSSGESSFLPEEEEEEGEEEEEDDEEEDSGVSPTCSDHCPYQSPPSKANRQLCSRSRSSSGSSPCHSWSPATRRNFRCESRGPCSDRTPSIRHARKRREKAIGEGRVVYIQNLSSDMSSRELKRRFEVFGEIEECEVLTRNRRGEKYGFITYRCSEHAALSLTKGAALRKRNEPSFQLSYGGLRHFCWPRYTDYDSNSEEALPASGKSKYEAMDFDSLLKEAQQSLH | binds | 
3 | estrogen-related receptor α (ERRα), endogenous in 293T cells (protein, UniProt P11474 1-423) MSSQVVGIEPLYIKAEPASPDSPKGSSETETEPPVALAPGPAPTRCLPGHKEEEDGEGAGPGEQGGGKLVLSSLPKRLCLVCGDVASGYHYGVASCEACKAFFKRTIQGSIEYSCPASNECEITKRRRKACQACRFTKCLRVGMLKEGVRLDRVRGGRQKYKRRPEVDPLPFPGPFPAGPLAVAGGPRKTAAPVNALVSHLLVVEPEKLYAMPDPAGPDGHLPAVATLCDLFDREIVVTISWAKSIPGFSSLSLSDQMSVLQSVWMEVLVLGVAQRSLPLQDELAFAEDLVLDEEGARAAGLGELGAALLQLVRRLQALRLEREEYVLLKALALANSDSVHIEDAEAVEQLREALHEALLEYEAGRAGPGGGAERRRAGRLLLTLPLLRQTAGKVLAHFYGVKLEGKVPMHKLFLEMLEAMMD |  | binds
4 | peroxisome proliferator-activated receptor gamma coactivator 1-beta (PGC-1β), in 293T cells (protein, UniProt Q86YN6 1-1023) MAGNDCGALLDEELSSFFLNYLADTQGGGSGEEQLYADFPELDLSQLDASDFDSATCFGELQWCPENSETEPNQYSPDDSELFQIDSENEALLAELTKTLDDIPEDDVGLAAFPALDGGDALSCTSASPAPSSAPPSPAPEKPSAPAPEVDELSLLQKLLLATSYPTSSSDTQKEGTAWRQAGLRSKSQRPCVKADSTQDKKAPMMQSQSRSCTELHKHLTSAQCCLQDRGLQPPCLQSPRLPAKEDKEPGEDCPSPQPAPASPRDSLALGRADPGAPVSQEDMQAMVQLIRYMHTYCLPQRKLPPQTPEPLPKACSNPSQQVRSRPWSRHHSKASWAEFSILRELLAQDVLCDVSKPYRLATPVYASLTPRSRPRPPKDSQASPGRPSSVEEVRIAASPKSTGPRPSLRPLRLEVKREVRRPARLQQQEEEDEEEEEEEEEEEKEEEEEWGRKRPGRGLPWTKLGRKLESSVCPVRRSRRLNPELGPWLTFADEPLVPSEPQGALPSLCLAPKAYDVERELGSPTDEDSGQDQQLLRGPQIPALESPCESGCGDMDEDPSCPQLPPRDSPRCLMLALSQSDPTFGKKSFEQTLTVELCGTAGLTPPTTPPYKPTEEDPFKPDIKHSLGKEIALSLPSPEGLSLKATPGAAHKLPKKHPERSELLSHLRHATAQPASQAGQKRPFSCSFGDHDYCQVLRPEGVLQRKVLRSWEPSGVHLEDWPQQGAPWAEAQAPGREEDRSCDAGAPPKDSTLLRDHEIRASLTKHFGLLETALEEEDLASCKSPEYDTVFEDSSSSSGESSFLPEEEEEEGEEEEEDDEEEDSGVSPTCSDHCPYQSPPSKANRQLCSRSRSSSGSSPCHSWSPATRRNFRCESRGPCSDRTPSIRHARKRREKAIGEGRVVYIQNLSSDMSSRELKRRFEVFGEIEECEVLTRNRRGEKYGFITYRCSEHAALSLTKGAALRKRNEPSFQLSYGGLRHFCWPRYTDYDSNSEEALPASGKSKYEAMDFDSLLKEAQQSLH |  | binds
